Data as given in PubChem BioAssay AID652272 (Drosophila RNAi Screening Center, 2013)

- Test: 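Finding fly genes that regulate Hedgehog signal transduction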 (primary screen)
- System: Drosophila clone 8 (Cl8) cells
- Reagents: long dsRNA against Drosophila genes
- Measurement: 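Plate reader light from a firefly reporter under a ptc promoter fragment that responds to Hedgehog, with Renilla light as transfection reference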
- Reading the numbers: firefly Hh reporter signal: higher = more ptc reporter light; Renilla reference signal: higher = more Renilla control light
- Call rule: 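Called a hit if the two-replicate mean z-score lies below -2 or above +3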
- Calls: active = hit: reporter lowered or raised; inactive = not a hit
In all, the deposit lists about 21,000 reagents; this is an unselected part of those that have a named target and a result. Over the whole deposit, 503 (2.4%) are marked active. 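Raw plate light values, not normalised; calls rest on replicate z-scores that were not deposited; hits include reporter decreases as well as increases.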 Unmarked entries are inactive. A plus sign joins genes that one reagent is predicted to hit. No sequences are given here. The record does not give: the amount of reagent, the time to read-out.

gene knocked down | PubChem SID | firefly Hh reporter signal, replicate 1 | firefly Hh reporter signal, replicate 2 | Renilla reference signal, replicate 1 | Renilla reference signal, replicate 2
CG15139 (retired record) | SID104182231 | 82896 (active) | 44659 | 3139 | 5267
mub | SID104191688 | 1.06e5 | 87915 | 4196 | 3369
Rbp6 | SID104189248 | 2.58e5 | – | 5193 | –
Rbp6 | SID104189254 | 1.76e5 | – | 2316 | –
Rbp6 | SID104189864 | 1.40e5 | – | 3972 | 2979
Rbp6 | SID104189865 | 1.23e5 | – | 4540 | 2167
Rbp6 | SID104190454 | 1.05e5 | – | 4858 | 1932
mRpL55 | SID104194556 | 4.39e5 | 83297 | 24012 | 2151
Spn53F | SID104185814 | 78593 | 44710 | 2233 | 3293
GlcT | SID104184317 | 45216 (active) | 43890 | 2880 | 2347
CG10465 | SID104184640 | 57857 | 46941 | 1638 | 4185
CG13771 | SID104182069 | 92278 | 59729 | 2210 | 5193
Cyp4p2 | SID104187165 | 56330 | 78064 | 2784 | 2688
dec | SID104198551 | 1.23e5 | 3.68e5 | 5106 | 14685
CG6847 | SID104199005 | 6.00e5 | 2.29e5 | 34246 | 5485
CG6847 | SID104199801 | 79226 | 1.38e5 | 3121 | 6284
barc | SID104191584 | 1.15e5 | 66217 | 4656 | 2741
CG15024 | SID104188270 | 78906 | 70353 | 7508 | 5812
CG4907 | SID104195465 | 5.53e5 | 74970 | 29842 | 2477
alpha-Est3 | SID104192407 | 1.36e5 | 95977 | 5312 | 3802
cGlr2 | SID104183809 | 65571 (active) | 1.21e5 | 2890 | 8196
Hsc70-5 | SID104187234 | 1.17e5 | 88948 | 5131 | 4010
CG3483 | SID104184163 | 1.07e5 | 94508 | 4661 | 3648
CG32579 | SID104199664 | 1.13e5 | 2.07e5 | 3755 | 7837
CG8460 | SID104182882 | 86392 | 59265 | 3792 | 2567
Strica | SID104184712 | 1.03e5 | 78993 | 1700 | 7085
CG13760 | SID104198409 | 66032 | 1.99e5 | 2665 | 7648
Or22b | SID104180557 | 1.30e5 | 84717 | 2784 | 2230
Sptz | SID104195550 | 94577 | 86440 | 3257 | 2600
CG7295 | SID104180491 | 74938 | 75841 | 1735 | 1704
Syx4 | SID104198378 | 69837 | 2.12e5 | 1904 | 9063
CG42633 | SID104195853 | 74211 | 94268 | 1144 | 2564
CG5676 | SID104182667 | 1.21e5 | 50868 | 2861 | 4425
CG34290 | SID104193452 | 54166 | 2.67e5 | 12772 | 6033
CG31676 | SID104182179 | 1.33e5 | 59339 | 3531 | 6384
CG31086 + CG31323 | SID104194694 | 6.17e5 | 98420 | 41296 | 1824
Hug | SID104196761 | 1.07e5 | 1.24e5 | 2753 | 2979
Sec5 | SID104180506 | 85265 | 47529 | 3492 | 1755
FucT6 | SID104199640 | 74455 | 66282 | 2008 | 1590
schlank | SID104197894 | 70725 | 1.83e5 | 2240 | 7356
schlank | SID104198105 | 68969 | 2.49e5 | 2833 | 9248
PpY-55A | SID104187305 | 44434 | 49907 | 1209 | 4168
CG10073 | SID104185753 | 1.01e5 | 67917 | 2723 | 4969
inaD | SID104184486 | 1.05e5 | 1.02e5 | 2440 | 7962
CG13427 | SID104186181 | 1.03e5 | 43053 | 2992 | 507
l(1)sc | SID104198581 | 70553 | 1.92e5 | 1717 | 7717
Ak3 | SID104195867 | 58461 | 87138 | 1808 | 2336
Rph | SID104197582 | 63222 | 1.75e5 | 1936 | 6723
CG34223 | SID104185060 | 1.17e5 | 2.11e5 | 3306 | 8813
Lint-1 + rtv | SID104199333 | 1.01e5 | 59964 | 2420 | 1399
Jon99Fii | SID104195222 | 1.31e5 | 1.40e5 | 4934 | 3992
TBPH | SID104184452 | 64720 | 59031 | 2688 | 2443
CG11474 | SID104183904 | 1.16e5 | 1.24e5 | 4713 | 4839
Srp9 | SID104190765 | 51368 | 66484 | 6600 | 4090
CG1598 | SID104186390 | 1.31e5 | 61531 | 2746 | 4370
RASSF8 | SID104195499 | 98640 | 77600 | 2166 | 2121
CG11400 | SID104185862 | 63543 | 42819 | 1728 | 3241
CG11837 | SID104194189 | 67268 | 75558 | 976 | 2268
CG6785 | SID104182785 | 60465 | 46466 | 3110 | 2144
ImpE2 | SID104188457 | 57419 | 66518 | 2619 | 2561
strat | SID104182861 | 1.48e5 | 82720 | 3255 | 5749
l(2)41Ab | SID104200799 | 7.24e5 | 2.69e5 | 39196 | 6407
cnir | SID104180291 | 2.11e5 | 76608 | 4789 | 7841
BomBc2 | SID104186294 | 62550 | 41405 | 1653 | 3353
CG18011 | SID104186489 | 60397 | 40973 | 3200 | 1747
CG18011 | SID104186498 | 84083 | 66467 | 1457 | 5076
CG31776 | SID104180508 | 1.19e5 | 91922 | 3104 | 6481
CG9875 | SID104184377 | 90210 | 61301 | 1915 | 6086
TyrRII | SID104194942 | 5.06e5 | 94928 | 25904 | 3036
Dnaaf3 | SID104186476 | 99052 | 59079 | 2896 | 4292
Mob3 | SID104182583 | 86710 | 73825 | 2363 | 6485
CG15905 | SID104186383 | 1.13e5 | 48644 | 3072 | 4113
CG14285 | SID104194558 | 5.45e5 | 1.12e5 | 33296 | 3053

Just “Renilla reference signal, replicate 2”, for 9 of the entries above:
CG10465 [SID104184640]: 4185
CG13771 [SID104182069]: 5193
Cyp4p2 [SID104187165]: 2688
dec [SID104198551]: 14685
CG6847 [SID104199005]: 5485
CG6847 [SID104199801]: 6284
barc [SID104191584]: 2741
CG15024 [SID104188270]: 5812
CG4907 [SID104195465]: 2477
